These are yes or no findings as the source states them, for the method shown. Binding seen in cells or lysates may run through a third protein. These calls come from enrichment with a bait or labelling near it, and not all partners need be listed.
Biological target: T1, annexin A1 (UniProt P04083)
T1 sequence: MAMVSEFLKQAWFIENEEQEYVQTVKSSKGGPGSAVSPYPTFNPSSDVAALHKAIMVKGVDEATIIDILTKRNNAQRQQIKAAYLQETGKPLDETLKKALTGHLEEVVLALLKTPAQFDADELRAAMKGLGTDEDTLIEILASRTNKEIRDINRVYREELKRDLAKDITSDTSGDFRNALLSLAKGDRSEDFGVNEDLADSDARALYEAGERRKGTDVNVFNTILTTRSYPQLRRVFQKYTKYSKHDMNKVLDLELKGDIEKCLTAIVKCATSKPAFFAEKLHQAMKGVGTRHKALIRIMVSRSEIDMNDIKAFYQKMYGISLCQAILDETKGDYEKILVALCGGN
Assay: affinity purification with mass spectrometry; mass spectrometry (Fig. S2G); bait, cells and conditions not told in the main text

B1: thioredoxin (protein, UniProt P10599 1-105)
chain: MVKQIESKTAFQEALDAAGDKLVVVDFSATWCGPCKMIKPFFHSLSEKYSNVIFLEVDVDDCQDVASECEVKCMPTFQFFKKGQKVGEFSGANKEKLEATINELV
- binding: binds

— publication PMC13453871
